Assay results reported in article doi:10.1101/2022.07.10.499475.
Results are given in words; binding and its absence hold for the method and conditions named. In cells and extracts the contact can be indirect. Some results given as binding are weak or reduced against the parent protein; the word gives no strength.

Target: DHX9 (endogenous) (human (endogenous in GM06990 lymphoblastoid and HEK293T cells)), Q08211
Assay: co-IP
Settings: remark: other sources report otherwise

binding: binds
B1: Top3β, O95985 1-862 (enzyme)
chain: MKTVLMVAEKPSLAQSIAKILSRGSLSSHKGLNGACSVHEYTGTFAGQPVRFKMTSVCGHVMTLDFLGKYNKWDKVDPAELFSQAPTEKKEANPKLNMVKFLQVEGRGCDYIVLWLDCDKEGENICFEVLDAVLPVMNKAHGGEKTVFRARFSSITDTDICNAMACLGEPDHNEALSVDARQELDLRIGCAFTRFQTKYFQGKYGDLDSSLISFGPCQTPTLGFCVERHDKIQSFKPETYWVLQAKVNTDKDRSLLLDWDRVRVFDREIAQMFLNMTKLEKEAQVEATSRKEKAKQRPLALNTVEMLRVASSSLGMGPQHAMQTAERLYTQGYISYPRTETTHYPENFDLKGSLRQQANHPYWADTVKRLLAEGINRPRKGHDAGDHPPITPMKSATEAELGGDAWRLYEYITRHFIATVSHDCKYLQSTISFRIGPELFTCSGKTVLSPGFTEVMPWQSVPLEESLPTCQRGDAFPVGEVKMLEKQTNPPDYLTEAELITLMEKHGIGTDASIPVHINNICQRNYVTVESGRRLKPTNLGIVLVHGYYKIDAELVLPTIRSAVEKQLNLIAQGKADYRQVLGHTLDVFKRKFHYFVDSIAGMDELMEVSFSPLAATGKPLSRCGKCHRFMKYIQAKPSRLHCSHCDETYTLPQNGTIKLYKELRCPLDDFELVLWSSGSRGKSYPLCPYCYNHPPFRDMKKGMGCNECTHPSCQHSLSMLGIGQCVECESGVLVLDPTSGPKWKVACNKCNVVAHCFENAHRVRVSADTCSVCEAALLDVDFNKAKSPLPGDETQHMGCVFCDPVFQELVELKHAASCHPMHRGGPGRRQGRGRGRARRPPGKPNPRRPKDKMSALAAYFV
